# The other results are listed elsewhere or left out. Repeats are few or missing, and single values can be far off.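 Cells were imaged in 1,536-well plates, and nuclei stained with an antibody against cleaved PARP were counted against all DNA-stained nuclei to give the apoptosis fraction. Screening doses were chosen to leave most cells alive, and resting and induced cleaved-PARP levels differ strongly between cell lines.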
# Columns and labels:
# Test in all cases: cleaved PARP positive nuclei fraction relative to DMSO control; melanoma cells; higher = more apoptosis
# Settings in all cases: library dose: low library concentration; 72 h
# 501Mel = tested on: 501Mel
# A101D = tested on: A101D
# A2058 = tested on: A2058
# A375 = tested on: A375
# C32 = tested on: C32
# CBRC013 = tested on: CBRC013 (line from a melanoma biopsy)
# CBRC014 = tested on: CBRC014 (line from a melanoma biopsy)
# CBRC016 = tested on: CBRC016 (line from a melanoma biopsy)
# CBRC017 = tested on: CBRC017 (line from a melanoma biopsy)
SMILES,cleaved PARP positive nuclei fraction (501Mel),cleaved PARP positive nuclei fraction (A101D),cleaved PARP positive nuclei fraction (A2058),cleaved PARP positive nuclei fraction (A375),cleaved PARP positive nuclei fraction (C32),cleaved PARP positive nuclei fraction (CBRC013),cleaved PARP positive nuclei fraction (CBRC014),cleaved PARP positive nuclei fraction (CBRC016),cleaved PARP positive nuclei fraction (CBRC017)
"Cn1c(Nc2ccc(C(F)(F)F)cc2)nc2cc(Oc3ccnc(-c4ncc(C(F)(F)F)[nH]4)c3)ccc21 + Cc1cc([N+](=O)[O-])ccc1NS(=O)(=O)c1cc(Cl)ccc1Cl [FH535] (first compound 0.08 µM, partner dose 1 µM)",113%,238%,166%,595%,254%,127%,156%,1310%,667%
"Cc1cc(N2CCOCC2)cc2[nH]c(-c3c(NC[C@@H](O)c4cccc(Cl)c4)cc[nH]c3=O)nc12 + N#Cc1c(O)c2c(-c3ccc(-c4ccccc4O)cc3)csc2[nH]c1=O [A769662] (first compound 0.2 µM, partner dose 2 µM)",84.9%,37.6%,90.1%,163%,249%,190%,115%,44.5%,68.5%
"O=C(Nc1cccc(Cl)c1)Nc1ncc(CCNc2ncnc3ccsc23)s1 + CCCCCCCCCCCC1=C(O)C(=O)C=C(O)C1=O [Embelin] (first compound 0.0008 µM, partner dose 1.2 µM)",52.9%,246%,55.5%,157%,50.9%,84.5%,95%,116%,69.3%
"O=C(Nc1cccc(Cl)c1)Nc1ncc(CCNc2ncnc3ccsc23)s1 + CCc1ccc(CCOc2ccc(CC3SC(=O)NC3=O)cc2)nc1 [pioglitazone] (first compound 0.0008 µM, partner dose 2 µM)",176%,78.6%,63.6%,140%,125%,38%,111%,126%,178%
"C[C@]1(c2nc3c(C(N)=O)cccc3[nH]2)CCCN1 [Veliparib] + COc1ccc(-c2ccc3c(N4CCOCC4)nc(N4C[C@@H](C)O[C@@H](C)C4)nc3n2)cc1CO [KU0063794] (first compound 1.4 µM, partner dose 0.02 µM)",99.1%,564%,110%,80.8%,55.5%,124%,87.4%,48%,155%
"O=C(CCCCCCC(=O)Nc1ccccc1)NO [vorinostat] + Cc1cc([N+](=O)[O-])ccc1NS(=O)(=O)c1cc(Cl)ccc1Cl [FH535] (first compound 0.08 µM, partner dose 1 µM)",79.5%,383%,168%,68.6%,126%,78.1%,133%,888%,261%
"C=CCn1c(=O)c2cnc(Nc3ccc(N4CCN(C)CC4)cc3)nc2n1-c1cccc(C(C)(C)O)n1 + COc1ccc(COc2ccc(Cc3cnc(N)nc3N)cc2OC)cc1 [GW2580] (first compound 0.02 µM, partner dose 1 µM)",74.3%,145%,106%,192%,104%,50.9%,108%,41.9%,83.8%
"COc1cc(Nc2ncc(F)c(Nc3ccc4c(n3)NC(=O)C(C)(C)O4)n2)cc(OC)c1OC [Tamatinib] + COc1ccc(COc2ccc(Cc3cnc(N)nc3N)cc2OC)cc1 [GW2580] (first compound 0.4 µM, partner dose 1 µM)",207%,97.1%,56.3%,166%,130%,47.7%,93.2%,82.6%,81.7%
"OCCn1cc(-c2cnc3nnn(Cc4ccc5ncccc5c4)c3n2)cn1 + COc1cc2ncnc(Nc3ccc(Oc4ccccc4)cc3)c2cc1OC [SrcI1] (first compound 1 µM, partner dose 2 µM)",72.2%,55.2%,83.2%,36%,61.2%,79.6%,113%,22.1%,125%
"C[C@]1(c2nc3c(C(N)=O)cccc3[nH]2)CCCN1 [Veliparib] + c1cc(-c2cnn3cc(-c4ccc(OCCN5CCCCC5)cc4)cnc23)ccn1 [Dorsomorphin] (first compound 1.4 µM, partner dose 0.4 µM)",83.3%,82.9%,133%,113%,39.7%,166%,115%,67.1%,88.4%
"C[C@]1(c2nc3c(C(N)=O)cccc3[nH]2)CCCN1 [Veliparib] + N#Cc1c(O)c2c(-c3ccc(-c4ccccc4O)cc3)csc2[nH]c1=O [A769662] (first compound 1.4 µM, partner dose 2 µM)",87.6%,33%,132%,138%,64.3%,67.3%,95.2%,131%,168%
"O=C(CCCCCCC(=O)Nc1ccccc1)NO [vorinostat] + Oc1cc(-c2nc(-c3ccccc3)[nH]c2-c2ccncc2)ccc1Cl [L779450] (first compound 0.08 µM, partner dose 0.2 µM)",122%,56.9%,65.3%,42.5%,237%,21.8%,128%,89.5%,100%
"O=C(CCCCCCC(=O)Nc1ccccc1)NO [vorinostat] + CCc1ccc(CCOc2ccc(CC3SC(=O)NC3=O)cc2)nc1 [pioglitazone] (first compound 0.08 µM, partner dose 2 µM)",98.4%,52.3%,186%,38%,42.4%,36%,81.9%,102%,48.9%
"COc1cc(Nc2ncc(F)c(Nc3ccc4c(n3)NC(=O)C(C)(C)O4)n2)cc(OC)c1OC [Tamatinib] + CCN(CC)CCCCNc1ncc2cc(-c3cc(OC)cc(OC)c3)c(NC(=O)NC(C)(C)C)nc2n1 [PD173074] (first compound 0.4 µM, partner dose 0.1 µM)",93.6%,62.5%,110%,71%,69.3%,62.5%,90.5%,17.3%,102%
"Cc1ccc(NC(=O)c2cccc(N(C)C)c2)cc1NC(=O)c1ccc(O)cc1 + O=C(O)C(=O)Nc1sc2c(c1C(=O)O)CCNC2 [TCS401] (first compound 2 µM, partner dose 1.66667 µM)",184%,253%,54.9%,53.5%,37%,125%,86.3%,140%,79.6%
"CC1(C)NC(=O)N(c2ccc([N+](=O)[O-])c(C(F)(F)F)c2)C1=O [nilutamide] + c1cc(-c2cnn3cc(-c4ccc(OCCN5CCCCC5)cc4)cnc23)ccn1 [Dorsomorphin] (first compound 1 µM, partner dose 0.4 µM)",82.7%,183%,59%,134%,143%,67.2%,106%,23.6%,116%
"Nc1cccc2c1CN(C1CCC(=O)NC1=O)C2=O (stereo unspecified) [lenalidomide] + COc1ccc(-c2ccc3c(N4CCOCC4)nc(N4C[C@@H](C)O[C@@H](C)C4)nc3n2)cc1CO [KU0063794] (first compound 1 µM, partner dose 0.02 µM)",43.4%,56.6%,59.5%,110%,57.7%,216%,86.3%,42.4%,47.4%
"CC1(C)NC(=O)N(c2ccc([N+](=O)[O-])c(C(F)(F)F)c2)C1=O [nilutamide] + N#Cc1c(O)c2c(-c3ccc(-c4ccccc4O)cc3)csc2[nH]c1=O [A769662] (first compound 1 µM, partner dose 2 µM)",226%,81.2%,109%,129%,47.8%,95.5%,102%,125%,71.4%
"COCC[n+]1c2c(n(Cc3cnccn3)c1C)C(=O)c1ccccc1C2=O + CCCCCCCCCCCC1=C(O)C(=O)C=C(O)C1=O [Embelin] (first compound 0.0004 µM, partner dose 1.2 µM)",74.8%,112%,94.2%,58.3%,172%,111%,93.5%,79.9%,147%
"CC(C)(C)c1cnc(CSc2cnc(NC(=O)C3CCNCC3)s2)o1 + COc1ccc2c(c1)CCC1C2CCC2(C)C(NCCCCCCN3C(=O)C=CC3=O)CCC12 [U73122] (first compound 0.01 µM, partner dose 0.4 µM)",63.8%,155%,30.5%,440%,97.6%,46.1%,119%,138%,81.4%
"O=C(CCCCCCC(=O)Nc1ccccc1)NO [vorinostat] + O=S(=O)(c1ccccc1)N(CC(F)(F)F)c1ccc(C(O)(C(F)(F)F)C(F)(F)F)cc1 [T0901317] (first compound 0.08 µM, partner dose 1.4 µM)",69.2%,36.2%,77%,69.8%,63.4%,90.6%,116%,137%,96.1%
"Cc1nc(Nc2ncc(C(=O)Nc3c(C)cccc3Cl)s2)cc(N2CCN(CCO)CC2)n1 [dasatanib] + O=C(Nc1ccccc1)c1cc([N+](=O)[O-])ccc1Cl [GW9662] (first compound 0.004 µM, partner dose 2 µM)",77.8%,94.7%,148%,202%,423%,350%,102%,46.8%,187%
"Cn1nnc2c(C(N)=O)ncn2c1=O [temozolomide] + O=C(O)C(=O)Nc1sc2c(c1C(=O)O)CCNC2 [TCS401] (first compound 2 µM, partner dose 1.66667 µM)",74.7%,101%,112%,122%,84%,38.4%,99.4%,14.6%,67%
"CC(C)(C)c1cnc(CSc2cnc(NC(=O)C3CCNCC3)s2)o1 + O=C(Nc1ccccc1)c1cc([N+](=O)[O-])ccc1Cl [GW9662] (first compound 0.01 µM, partner dose 2 µM)",53.6%,67.7%,315%,89.1%,86.8%,107%,105%,59.5%,78.9%

# Record cards, from the list above. Values in the order: cleaved PARP positive nuclei fraction (501Mel) | cleaved PARP positive nuclei fraction (A101D) | cleaved PARP positive nuclei fraction (A2058) | cleaved PARP positive nuclei fraction (A375) | cleaved PARP positive nuclei fraction (C32) | cleaved PARP positive nuclei fraction (CBRC013) | cleaved PARP positive nuclei fraction (CBRC014) | cleaved PARP positive nuclei fraction (CBRC016) | cleaved PARP positive nuclei fraction (CBRC017)
# Nc1cccc2c1CN(C1CCC(=O)NC1=O)C2=O (stereo unspecified) [lenalidomide] + COc1ccc(-c2ccc3c(N4CCOCC4)nc(N4C[C@@H](C)O[C@@H](C)C4)nc3n2)cc1CO [KU0063794] (first compound 1 µM, partner dose 0.02 µM) reads 43.4% | 56.6% | 59.5% | 110% | 57.7% | 216% | 86.3% | 42.4% | 47.4%
# Cc1nc(Nc2ncc(C(=O)Nc3c(C)cccc3Cl)s2)cc(N2CCN(CCO)CC2)n1 [dasatanib] + O=C(Nc1ccccc1)c1cc([N+](=O)[O-])ccc1Cl [GW9662] (first compound 0.004 µM, partner dose 2 µM) reads 77.8% | 94.7% | 148% | 202% | 423% | 350% | 102% | 46.8% | 187%
